The series can be described thus: Taste comparison of aqueous solutions against quinine hydrochloride bitter taste standard. To be noted: aqueous solution 0.5 mg/ml; quinine hydrochloride as bitter taste standard.

Counter-ions that a name gives are not always drawn.

These results are taken from patent US10543298B2, “Salts of tetracyclines” (Hovione Scientia Limited, priority 2015, dated 2020).

As for `CCO.C[C@H]1c2cccc(O)c2C(=O)C2=C(O)[C@]3(O)C(=O)C(C(N)=O)=C(O)[C@@H](N(C)C)[C@@H]3[C@@H](O)[C@@H]21.C[C@H]1c2cccc(O)c2C(=O)C2=C(O)[C@]3(O)C(=O)C(C(N)=O)=C(O)[C@@H](N(C)C)[C@@H]3[C@@H](O)[C@@H]21.Cl.Cl.O` [Doxycycline Hyclate, reference compound], the Taste result is recorded as “Slightly bitter”. Regarding `CC1c2cccc(O)c2C(O)=C2C(=O)C3(O)C(O)=C(C(N)=O)C(=O)C(N(C)C)C3C(O)C21.O=C(O)C=CC(=O)O` (stereo not shown) [Doxycycline Maleate], the Taste entry is given as “Slightly bitter, fruit like”. Consider `C[C@H]1c2cccc(O)c2C(=O)C2=C(O)[C@]3(O)C(=O)C(C(N)=O)=C(O)[C@@H](N(C)C)[C@@H]3[C@@H](O)[C@@H]21` [Doxycycline Monohydrate, reference compound], for which the Taste entry was “Slightly bitter, almost tasteless”. For the molecule `C[C@H]1c2cccc(O)c2C(O)=C2C(=O)[C@]3(O)C(O)=C(C(N)=O)C(=O)[C@@H](N(C)C)[C@@H]3[C@@H](O)[C@@H]21.O=C(O)C(=O)O` [Doxycycline Oxalate], the Taste entry is “Slightly bitter”. Take `CN(C)c1ccc(O)c2c1C[C@H]1C[C@H]3[C@H](N(C)C)C(O)=C(C(N)=O)C(=O)[C@@]3(O)C(O)=C1C2=O` [Minocycline Base, 7-dimethylamino-6-demethyl-6-deoxytetracycline, reference compound]: the Taste result is reported as “Almost tasteless, acidic”. For `C=C[C@H]1C[N@@]2CC[C@H]1C[C@H]2[C@H](O)c1ccnc2ccc(OC)cc12` [Quinine hydrochloride, reference compound], the Taste result is recorded as “Bitter”. Turning to `CN(C)[C@@H]1C(O)=C(C(N)=O)C(=O)[C@@]2(O)C(O)=C3C(=O)c4c(O)cccc4[C@@](C)(O)[C@H]3C[C@@H]12` [Tetracycline], the Taste entry was “Almost tasteless”. Demeclocycline Maleate: the Taste result is listed as “Unpleaseant, oil like”. Regarding Demeclocycline Oxalate, the Taste result is reported as “Bitter, acidic”. Regarding Minocycline Oxalate, the Taste entry is given as “Slightly bitter, citrine like”.
